Some of these results come from one statement about several compounds together.
System: human knee cartilage explants
Assay: Aggrecan/sGAG biosynthesis rate (35S-sulfate incorporation) in human knee cartilage explants
Assay type: cell-based
Details: Experiment 2, human knee cartilage
Experimental: Cartilage was harvested from the knee joint of a donor. Cartilage explants were equilibrated in culture media for 2 days after harvest. […] These were cut down to 1 mm thickness and allowed to equilibrate for a further 2 days before the experiment was set up. Subsets of the experiment were terminated at 3 days and 7 days from the start of the experiment. Media changes were performed every 2 to 3 days.
For the 3-day termination experiment, chondrocyte biosynthesis rate (primarily aggrecan synthesis) was measured between days 0 and 3 of the experiment using a 35S-sulfate radiolabel. For the 7-day termination experiment, this measurement was done between days 5 and 7. Statistics: 1-way ANOVA with post-hoc Tukey's HSD test.
Cartilage was harvested from the knee joint of a donor. […]
The metabolic rate of cartilage explants was measured using the Alamar Blue assay (ThermoFisher). […] At the end of the incubation period, the absorbance of the medium at 570 nm and 600 nm was measured using a microplate reader (Synergy H1 Hybrid Multi-Mode Microplate Reader, BioTek). These readings were used to calculate the percentage reduction of Alamar Blue, which is directly proportional to the explant metabolic rate. […] Following this, the weight-normalized readings for the treatment groups were normalized by the weight-normalized mean value for the untreated controls. […]

Substance	duration of the effect of a single dose after administration
(+9GFP)-(EAAAK)3-(IGF-1): fusion protein of +9 GFP and human IGF-1 with rigid (EAAAK)3 linker, SEQ ID NO: 8	at least 1 week
(+9GFP)-(GGGGS)4-(IGF-1): fusion protein of +9 GFP and human IGF-1 with flexible (GGGGS)4 linker, SEQ ID NO: 7	at least 1 week

Reference: patent US12653899B2, “Multi-targeted, tunable, sustained delivery of payloads to charged avascular tissues” (Massachusetts Institute of Technology, priority 2019, dated 2026)
